In article PMC9913075:
Residue numbers refer to the chain shown, from its start. No constants are given. Whether binding was seen depends on the method and setting. Binding seen in cells or lysates may run through a third protein. Some entries that bind do so weakly or less than the wild type. Sequences can lack the tags named with a protein.

Sequences of proteins named here, by UniProt entry; tags and fusion partners are left off.
UniProt Q02880: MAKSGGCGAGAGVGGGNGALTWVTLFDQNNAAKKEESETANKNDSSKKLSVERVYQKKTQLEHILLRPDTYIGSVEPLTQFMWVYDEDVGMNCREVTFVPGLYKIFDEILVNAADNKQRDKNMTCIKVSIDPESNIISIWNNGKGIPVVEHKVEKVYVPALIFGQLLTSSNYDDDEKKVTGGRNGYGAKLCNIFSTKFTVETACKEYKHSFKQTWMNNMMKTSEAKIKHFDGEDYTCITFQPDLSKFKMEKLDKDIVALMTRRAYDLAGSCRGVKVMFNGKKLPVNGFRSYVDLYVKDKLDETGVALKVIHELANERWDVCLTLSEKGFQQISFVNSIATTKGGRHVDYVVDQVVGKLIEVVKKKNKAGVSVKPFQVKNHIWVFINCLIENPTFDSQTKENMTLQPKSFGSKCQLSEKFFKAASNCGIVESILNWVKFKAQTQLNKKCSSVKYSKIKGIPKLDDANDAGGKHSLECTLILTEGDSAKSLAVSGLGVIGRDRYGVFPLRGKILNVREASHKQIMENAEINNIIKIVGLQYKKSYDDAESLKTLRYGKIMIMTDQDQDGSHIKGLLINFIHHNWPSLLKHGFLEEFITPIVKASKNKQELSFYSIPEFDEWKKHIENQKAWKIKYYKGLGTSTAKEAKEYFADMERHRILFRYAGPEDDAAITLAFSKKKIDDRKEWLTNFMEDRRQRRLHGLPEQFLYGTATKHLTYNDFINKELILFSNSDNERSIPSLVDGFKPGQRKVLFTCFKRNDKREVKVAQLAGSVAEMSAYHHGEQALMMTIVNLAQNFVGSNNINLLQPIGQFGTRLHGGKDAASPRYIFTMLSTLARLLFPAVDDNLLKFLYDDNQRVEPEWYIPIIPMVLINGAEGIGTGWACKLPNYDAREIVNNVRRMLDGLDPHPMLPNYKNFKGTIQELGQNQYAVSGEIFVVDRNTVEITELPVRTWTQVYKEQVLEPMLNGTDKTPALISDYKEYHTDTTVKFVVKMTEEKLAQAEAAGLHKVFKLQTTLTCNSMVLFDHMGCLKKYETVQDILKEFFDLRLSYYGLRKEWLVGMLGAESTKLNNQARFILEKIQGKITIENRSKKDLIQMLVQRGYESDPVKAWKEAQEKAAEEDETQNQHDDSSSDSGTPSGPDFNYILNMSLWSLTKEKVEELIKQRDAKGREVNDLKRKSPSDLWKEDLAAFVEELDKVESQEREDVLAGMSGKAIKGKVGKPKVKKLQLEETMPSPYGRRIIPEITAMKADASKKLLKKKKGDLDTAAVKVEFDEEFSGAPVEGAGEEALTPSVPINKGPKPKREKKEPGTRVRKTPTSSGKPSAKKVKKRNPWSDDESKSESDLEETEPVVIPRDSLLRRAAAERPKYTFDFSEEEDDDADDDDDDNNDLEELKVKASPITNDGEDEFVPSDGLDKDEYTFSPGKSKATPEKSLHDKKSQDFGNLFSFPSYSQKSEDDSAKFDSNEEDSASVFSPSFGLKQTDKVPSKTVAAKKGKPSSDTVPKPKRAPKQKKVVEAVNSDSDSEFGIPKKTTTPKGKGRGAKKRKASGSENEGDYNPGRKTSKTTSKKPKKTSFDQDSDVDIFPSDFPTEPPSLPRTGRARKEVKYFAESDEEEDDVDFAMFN
UniProt P06748: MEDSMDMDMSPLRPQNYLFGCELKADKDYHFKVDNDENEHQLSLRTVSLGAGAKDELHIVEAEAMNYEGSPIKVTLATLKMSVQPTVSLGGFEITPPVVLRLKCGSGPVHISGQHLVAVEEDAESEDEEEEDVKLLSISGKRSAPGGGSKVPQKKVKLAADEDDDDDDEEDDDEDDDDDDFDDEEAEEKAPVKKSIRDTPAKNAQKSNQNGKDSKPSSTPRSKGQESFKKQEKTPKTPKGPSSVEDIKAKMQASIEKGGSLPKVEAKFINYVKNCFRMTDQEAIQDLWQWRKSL
UniProt Q03164: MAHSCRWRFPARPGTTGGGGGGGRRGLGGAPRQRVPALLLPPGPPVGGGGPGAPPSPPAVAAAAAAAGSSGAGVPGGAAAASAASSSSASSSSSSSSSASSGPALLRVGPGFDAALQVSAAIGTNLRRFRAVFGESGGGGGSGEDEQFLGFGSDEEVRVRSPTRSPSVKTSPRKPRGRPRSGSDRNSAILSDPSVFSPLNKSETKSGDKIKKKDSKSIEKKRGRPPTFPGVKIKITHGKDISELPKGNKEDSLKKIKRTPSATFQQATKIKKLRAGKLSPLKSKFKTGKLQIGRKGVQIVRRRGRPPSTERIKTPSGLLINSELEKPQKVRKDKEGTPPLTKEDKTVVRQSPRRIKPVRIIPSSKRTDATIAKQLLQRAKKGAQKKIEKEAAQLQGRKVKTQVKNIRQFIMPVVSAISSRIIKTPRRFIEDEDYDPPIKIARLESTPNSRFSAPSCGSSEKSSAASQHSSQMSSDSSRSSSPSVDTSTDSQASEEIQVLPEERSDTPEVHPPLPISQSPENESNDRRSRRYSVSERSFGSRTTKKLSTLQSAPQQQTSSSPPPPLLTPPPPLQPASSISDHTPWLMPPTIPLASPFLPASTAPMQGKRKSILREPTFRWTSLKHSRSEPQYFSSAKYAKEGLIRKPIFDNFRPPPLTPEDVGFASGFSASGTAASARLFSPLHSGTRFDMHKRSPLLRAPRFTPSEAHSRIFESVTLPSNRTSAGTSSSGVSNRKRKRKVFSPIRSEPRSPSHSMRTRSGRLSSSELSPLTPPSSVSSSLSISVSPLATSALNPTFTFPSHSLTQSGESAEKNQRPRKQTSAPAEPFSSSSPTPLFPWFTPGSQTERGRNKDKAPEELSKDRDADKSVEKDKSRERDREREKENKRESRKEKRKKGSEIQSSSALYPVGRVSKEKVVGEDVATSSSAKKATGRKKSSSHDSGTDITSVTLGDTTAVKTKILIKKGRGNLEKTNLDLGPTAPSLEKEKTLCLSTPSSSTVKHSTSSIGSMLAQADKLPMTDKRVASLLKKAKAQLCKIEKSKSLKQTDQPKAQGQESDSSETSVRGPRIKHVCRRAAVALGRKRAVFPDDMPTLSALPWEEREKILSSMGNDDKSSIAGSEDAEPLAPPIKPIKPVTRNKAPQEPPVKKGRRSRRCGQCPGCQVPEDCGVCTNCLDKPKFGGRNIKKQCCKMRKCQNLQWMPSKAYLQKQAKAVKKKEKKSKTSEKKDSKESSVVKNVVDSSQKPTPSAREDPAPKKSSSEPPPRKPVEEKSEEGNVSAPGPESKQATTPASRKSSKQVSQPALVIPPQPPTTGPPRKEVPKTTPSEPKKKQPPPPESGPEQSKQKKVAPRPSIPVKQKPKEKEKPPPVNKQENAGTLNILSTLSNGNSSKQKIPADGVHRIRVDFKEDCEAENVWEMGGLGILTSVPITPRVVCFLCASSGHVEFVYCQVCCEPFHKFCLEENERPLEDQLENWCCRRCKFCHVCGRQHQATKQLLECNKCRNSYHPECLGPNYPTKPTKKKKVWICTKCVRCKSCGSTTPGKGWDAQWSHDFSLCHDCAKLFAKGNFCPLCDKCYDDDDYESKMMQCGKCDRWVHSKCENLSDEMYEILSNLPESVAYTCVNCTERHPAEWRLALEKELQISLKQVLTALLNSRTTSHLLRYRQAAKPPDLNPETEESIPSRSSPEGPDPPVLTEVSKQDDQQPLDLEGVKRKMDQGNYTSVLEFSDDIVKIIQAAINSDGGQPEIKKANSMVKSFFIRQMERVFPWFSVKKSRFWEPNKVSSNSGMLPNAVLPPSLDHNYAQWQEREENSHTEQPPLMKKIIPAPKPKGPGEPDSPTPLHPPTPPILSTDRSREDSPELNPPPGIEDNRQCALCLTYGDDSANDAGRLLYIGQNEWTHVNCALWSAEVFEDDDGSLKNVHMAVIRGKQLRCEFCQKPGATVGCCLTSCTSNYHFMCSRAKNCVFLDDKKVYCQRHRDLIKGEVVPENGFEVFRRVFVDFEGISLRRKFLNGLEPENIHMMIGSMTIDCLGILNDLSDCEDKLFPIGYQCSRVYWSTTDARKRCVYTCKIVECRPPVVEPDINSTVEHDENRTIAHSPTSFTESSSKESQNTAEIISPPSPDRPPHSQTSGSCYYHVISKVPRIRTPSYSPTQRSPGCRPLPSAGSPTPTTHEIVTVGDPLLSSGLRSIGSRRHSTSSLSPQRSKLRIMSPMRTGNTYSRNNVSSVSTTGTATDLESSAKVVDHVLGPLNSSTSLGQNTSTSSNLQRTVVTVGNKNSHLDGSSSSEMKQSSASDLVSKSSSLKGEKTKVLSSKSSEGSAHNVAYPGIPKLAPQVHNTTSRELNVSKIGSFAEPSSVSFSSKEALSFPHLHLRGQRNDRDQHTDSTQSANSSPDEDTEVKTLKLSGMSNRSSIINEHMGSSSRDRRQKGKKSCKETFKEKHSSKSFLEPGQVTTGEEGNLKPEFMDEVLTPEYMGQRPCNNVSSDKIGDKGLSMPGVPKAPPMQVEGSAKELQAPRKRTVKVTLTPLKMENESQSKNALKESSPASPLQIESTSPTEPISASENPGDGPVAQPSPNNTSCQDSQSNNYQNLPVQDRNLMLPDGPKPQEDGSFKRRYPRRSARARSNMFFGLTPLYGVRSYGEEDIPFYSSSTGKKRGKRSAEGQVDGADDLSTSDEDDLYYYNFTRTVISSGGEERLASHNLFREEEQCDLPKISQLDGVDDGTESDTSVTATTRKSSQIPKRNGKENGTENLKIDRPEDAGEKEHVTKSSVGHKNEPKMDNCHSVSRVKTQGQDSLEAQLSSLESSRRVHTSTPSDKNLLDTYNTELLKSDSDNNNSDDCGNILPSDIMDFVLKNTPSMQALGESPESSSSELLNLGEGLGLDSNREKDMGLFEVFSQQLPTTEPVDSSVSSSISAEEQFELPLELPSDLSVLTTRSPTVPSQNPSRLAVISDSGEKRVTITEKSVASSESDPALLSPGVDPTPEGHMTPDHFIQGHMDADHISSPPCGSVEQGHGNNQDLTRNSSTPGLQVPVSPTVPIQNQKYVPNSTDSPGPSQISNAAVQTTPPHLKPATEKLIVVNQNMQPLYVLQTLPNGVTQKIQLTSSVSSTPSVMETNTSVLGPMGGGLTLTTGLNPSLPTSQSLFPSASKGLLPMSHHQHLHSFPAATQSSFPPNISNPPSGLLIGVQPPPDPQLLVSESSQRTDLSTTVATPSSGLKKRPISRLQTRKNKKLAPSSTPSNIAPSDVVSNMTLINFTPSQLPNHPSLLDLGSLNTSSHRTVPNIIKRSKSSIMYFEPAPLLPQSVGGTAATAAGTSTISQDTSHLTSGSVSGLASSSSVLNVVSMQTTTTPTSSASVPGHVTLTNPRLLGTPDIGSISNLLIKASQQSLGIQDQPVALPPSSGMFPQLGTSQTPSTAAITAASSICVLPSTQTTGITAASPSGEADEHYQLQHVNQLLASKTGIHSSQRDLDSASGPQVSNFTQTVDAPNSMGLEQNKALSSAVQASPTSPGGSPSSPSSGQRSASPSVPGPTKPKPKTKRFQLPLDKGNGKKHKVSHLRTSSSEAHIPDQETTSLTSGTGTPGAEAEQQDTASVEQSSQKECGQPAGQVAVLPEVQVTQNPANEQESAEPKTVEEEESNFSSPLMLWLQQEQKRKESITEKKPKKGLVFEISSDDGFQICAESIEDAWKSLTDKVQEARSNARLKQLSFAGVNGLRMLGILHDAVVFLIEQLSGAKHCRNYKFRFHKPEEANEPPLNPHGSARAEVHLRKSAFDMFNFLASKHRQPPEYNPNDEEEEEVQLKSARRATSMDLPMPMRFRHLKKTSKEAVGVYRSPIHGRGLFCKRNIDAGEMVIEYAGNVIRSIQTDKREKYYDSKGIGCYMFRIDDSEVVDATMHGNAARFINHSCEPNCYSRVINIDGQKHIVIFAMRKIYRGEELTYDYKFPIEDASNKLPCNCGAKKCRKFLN

How the values were obtained:
[1] = molecular target: T1, Taspase1^T234V-GFP, catalytic inactive Taspase1 variant (human) (UniProt Q9H6P5); assay: co-IP; GFP fusion proteins precipitated with µMACS anti-GFP MicroBeads from whole cell lysates of transfected HEK 293T cells; low-salt lysis buffer (50 mM Tris pH 8.0, 150 mM NaCl, 5 mM EDTA, 0.5% NP-40); eluates analysed by immunoblot
T1 sequence: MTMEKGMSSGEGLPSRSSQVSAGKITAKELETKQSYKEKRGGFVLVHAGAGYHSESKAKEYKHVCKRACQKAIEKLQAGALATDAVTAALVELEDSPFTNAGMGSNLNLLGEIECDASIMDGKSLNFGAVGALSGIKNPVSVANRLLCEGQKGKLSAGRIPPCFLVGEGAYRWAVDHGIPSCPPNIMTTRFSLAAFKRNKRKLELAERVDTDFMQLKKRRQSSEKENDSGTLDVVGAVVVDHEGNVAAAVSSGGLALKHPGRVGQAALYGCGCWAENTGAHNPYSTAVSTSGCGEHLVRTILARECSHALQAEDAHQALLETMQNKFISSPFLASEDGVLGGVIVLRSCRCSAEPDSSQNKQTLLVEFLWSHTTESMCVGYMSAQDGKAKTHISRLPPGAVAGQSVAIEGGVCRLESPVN

[2] = molecular target: T2, wild type (WT) Taspase1-GFP (human) (UniProt Q9H6P5); assay: as above
T2 sequence: T1 sequence with V234T

[3] = molecular target: T2, wild type (WT) Taspase1-GFP (human); assay: co-IP; Taspase1-GFP precipitated with anti-GFP MicroBeads from chromatin fractions of transfected HEK 293T cells treated with 50 nM E2 or DMSO for 1 h; immunoblot
[4] = molecular target: Topo IIα-GFP (GFP-tagged Topoisomerase IIα) (UniProt P11388); assay: co-IP; GFP fusion proteins precipitated with µMACS anti-GFP MicroBeads from whole cell lysates of transfected HEK 293T cells; low-salt lysis buffer (50 mM Tris pH 8.0, 150 mM NaCl, 5 mM EDTA, 0.5% NP-40); eluates analysed by immunoblot
[5] = molecular target: Topo IIβ-GFP (GFP-tagged Topoisomerase IIβ) (UniProt Q02880); assay: as above

## Nucleophosmin1 (NPM1) (from UniProt P06748 1-294)
[1]
  binding: binds
[2]
  binding: binds

## MLL1 (mixed lineage or myeloid/lymphoid leukemia) protein (from UniProt Q03164 1-3969) (enzyme)
[3]
  binding: binds

B1: wild-type Taspase1-HA (enzyme, UniProt Q9H6P5 1-420)
chain: T1 sequence with V234T
[4]
  binding: binds
[5]
  binding: binds
